The text below walks through data of publication PMC9723177.

Protein sequences, listed by entry. Tags and fused reporters are not part of them.
UniProt Q9UHB6: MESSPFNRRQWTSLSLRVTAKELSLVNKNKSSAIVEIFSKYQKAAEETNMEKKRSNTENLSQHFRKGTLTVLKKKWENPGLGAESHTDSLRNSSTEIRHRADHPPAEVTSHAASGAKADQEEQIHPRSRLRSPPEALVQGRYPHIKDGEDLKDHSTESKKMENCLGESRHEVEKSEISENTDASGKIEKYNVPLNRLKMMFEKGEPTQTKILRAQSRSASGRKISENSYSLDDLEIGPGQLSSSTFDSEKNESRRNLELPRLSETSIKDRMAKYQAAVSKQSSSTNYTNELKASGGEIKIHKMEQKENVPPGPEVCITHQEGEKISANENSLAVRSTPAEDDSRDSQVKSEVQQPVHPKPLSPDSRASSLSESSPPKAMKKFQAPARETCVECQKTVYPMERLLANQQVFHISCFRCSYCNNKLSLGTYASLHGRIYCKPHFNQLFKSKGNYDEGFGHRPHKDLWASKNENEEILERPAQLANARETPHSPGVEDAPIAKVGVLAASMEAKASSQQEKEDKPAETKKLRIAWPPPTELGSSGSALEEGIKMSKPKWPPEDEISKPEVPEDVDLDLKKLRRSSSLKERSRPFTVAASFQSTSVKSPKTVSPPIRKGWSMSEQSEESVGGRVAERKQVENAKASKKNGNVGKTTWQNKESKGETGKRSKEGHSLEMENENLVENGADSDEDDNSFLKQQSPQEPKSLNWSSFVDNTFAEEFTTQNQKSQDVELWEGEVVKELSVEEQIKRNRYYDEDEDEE
UniProt P11940: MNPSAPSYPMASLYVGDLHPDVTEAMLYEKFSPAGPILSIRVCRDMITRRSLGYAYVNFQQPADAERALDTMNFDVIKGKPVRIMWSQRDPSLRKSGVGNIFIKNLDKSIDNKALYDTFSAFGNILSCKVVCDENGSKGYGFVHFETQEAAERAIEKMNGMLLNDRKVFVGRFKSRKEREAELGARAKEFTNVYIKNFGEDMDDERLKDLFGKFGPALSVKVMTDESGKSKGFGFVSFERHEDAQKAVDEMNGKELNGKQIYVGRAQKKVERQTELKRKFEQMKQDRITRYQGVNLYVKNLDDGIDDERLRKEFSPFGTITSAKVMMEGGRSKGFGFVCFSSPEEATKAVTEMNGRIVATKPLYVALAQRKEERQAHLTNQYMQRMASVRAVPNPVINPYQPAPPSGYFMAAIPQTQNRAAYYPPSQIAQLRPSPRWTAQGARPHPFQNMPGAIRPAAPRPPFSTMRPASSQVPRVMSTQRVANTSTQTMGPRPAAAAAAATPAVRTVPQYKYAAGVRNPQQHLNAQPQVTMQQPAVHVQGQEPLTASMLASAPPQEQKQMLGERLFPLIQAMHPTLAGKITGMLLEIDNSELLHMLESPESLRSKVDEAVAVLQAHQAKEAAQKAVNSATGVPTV

Results are given in words; binding and its absence hold for the method and conditions named. In cells and extracts the contact can be indirect. These calls come from enrichment with a bait or labelling near it, and not all partners need be listed. Where a sequence is shown, tags or fusion partners need not be part of it.

The target in the assay is T1, STAM-binding protein (STAMBP) (human (endogenous in MDA-MB-231 and BT549)) (UniProt O95630).
T1 sequence: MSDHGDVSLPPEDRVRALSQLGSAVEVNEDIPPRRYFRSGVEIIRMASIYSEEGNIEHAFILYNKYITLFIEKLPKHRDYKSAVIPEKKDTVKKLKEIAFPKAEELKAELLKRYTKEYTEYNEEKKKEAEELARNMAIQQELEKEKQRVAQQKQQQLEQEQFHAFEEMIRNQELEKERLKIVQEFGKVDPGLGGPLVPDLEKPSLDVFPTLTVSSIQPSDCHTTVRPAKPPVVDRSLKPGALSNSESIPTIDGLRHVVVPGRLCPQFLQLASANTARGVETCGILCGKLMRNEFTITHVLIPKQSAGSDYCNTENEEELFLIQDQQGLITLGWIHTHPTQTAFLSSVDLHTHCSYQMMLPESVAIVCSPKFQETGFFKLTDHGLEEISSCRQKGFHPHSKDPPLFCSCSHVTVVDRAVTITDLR
Kind of assay: affinity purification with mass spectrometry; MDA-MB-231 cell lysates incubated with beads conjugated with anti-STAMBP antibodies; immunoprecipitates analyzed by mass spectrometry.

On to LIMA1 (from UniProt Q9UHB6 1-759), for which the binding result is on record as “binds”.

Consider PABPC1 (from UniProt P11940 1-636), for which the binding result is “binds”.
